From patent US20150374853A1 come the findings set out here.

These are yes or no findings as the source states them, for the method shown. Binding seen in cells or lysates may run through a third protein. Here binding means that the protein was enriched with, or labelled near, the bait; the list need not be complete.

For one assay, the target named is Clathrin. The assay can be described thus: pull-down with biotinylated H10 peptide, mass spectrometry; 'potential binding partners'.
In another assay the target is REB35. The description is as above.

With TNSIWYTAPYMF (biotinylated (position of the biotin not stated)) [H10 peptide, biotinylated version], the binding result in the assay with Clathrin and with REB35 was “binds” in each case.
